Assay results as given in PubChem BioAssay AID1794845 (National Center for Advancing Translational Sciences (NCATS), 2023).
The whole screen tested about 6,900 compounds, of which fewer than 10 were called active. Calls follow the shape of the dose curve; as a rule, active = well fitted curve in the direction sought with a large enough effect; inconclusive = small, poorly fitted or top-dose-only effect, or another doubt; inactive = no such curve, though single readings can be large or run the other way. The list shows a part of the results.

Sequences of proteins named here, by UniProt entry; tags and fusion partners are left off. A change or cut given only in a name is not applied to a line headed by its entry.
UniProt C7C422: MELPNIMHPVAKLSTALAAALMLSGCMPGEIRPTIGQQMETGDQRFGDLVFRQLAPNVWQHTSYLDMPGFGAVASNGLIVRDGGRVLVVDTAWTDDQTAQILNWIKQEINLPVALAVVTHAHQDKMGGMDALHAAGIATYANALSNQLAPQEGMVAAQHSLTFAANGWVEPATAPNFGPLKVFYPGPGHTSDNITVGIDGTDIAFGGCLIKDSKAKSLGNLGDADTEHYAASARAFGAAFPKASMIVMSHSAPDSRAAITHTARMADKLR

Biological target: Metallo-beta-lactamase type 2 (Klebsiella pneumoniae) (UniProt C7C422)
Assay: qHTS to identify inhibitors of the New Delhi Metallo-beta-lactamase (NDM): primary screen against the NCATS Gemini Collection; also: % of control where 0% means no effect
Conditions: NDM-1 enzyme, meropenem hydrolysis, absorbance 300 nm; at 38.4 µM (top of the series) unless noted
In short: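 NDM-1 at 2 nM final in 50 mM HEPES pH 7.0, 1 uM ZnSO4, 0.01% Tween20, preincubated >30 min with compound. Meropenem 50 uM final added; absorbance at 300 nm after 30 min.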

Question: How did the activity % (negative = inhibition) turn out when `Fc1ccccc1CN1CCNc2cnc(OCc3cccnc3)cc2C1` was run?
Answer: inactive: -1.18% [at 57.5 µM]

Question: `CNC(=O)C1(N2CCC[C@H]2C(=O)N(C)CCN(C)C)CCC1` was tested. Which activity % (negative = inhibition) did it give?
Answer: inactive: 13.7% [at 57.5 µM]

Question: `O=C(O)c1ccc(-c2nc3ccncc3[nH]2)cc1` was tested. Which activity % (negative = inhibition) did it give?
Answer: inactive: 21.5% [at 77.1 µM]

Question: How did the activity % (negative = inhibition) turn out when `Cc1ccc(-c2nc3cnccn3c2NCCC(=O)O)cc1` was run?
Answer: inactive: 3.5%

Question: Which activity % (negative = inhibition) does the source give for `O=C(CN1CC2CC(C1)[C@H]1CCCC(=O)N1C2)N1CCCCC1` (stereo partly specified) here?
Answer: inactive: -0.229%

Question: Which activity % (negative = inhibition) does the source give for `Cc1noc(-c2ccn3c(CNC(=O)COc4ccccc4)nnc3c2)n1` here?
Answer: inactive: 11.4%

Question: How did the activity % (negative = inhibition) turn out when `COc1ccc(-c2nc3c(C)cccc3cc2CN2CC[C@@H](O)C2)cc1` was run?
Answer: inactive: 1%

Question: Which activity % (negative = inhibition) does the source give for `O=C(NCC1(COc2ccc(C(F)(F)F)cn2)C[C@@H](O)[C@@H](O)C1)c1cnccn1` (stereo partly specified) here?
Answer: inactive: 28.6%

Question: With `CN1C(=O)CN(Cc2ccccc2C#N)C(=O)c2ccccc21` as the compound, how does the activity % (negative = inhibition) read?
Answer: inactive: -0.818%

Question: For `Cc1cc2nc3n(c(=O)c2n1CC(=O)NC1CCCCC1)CCCCC3`, which activity % (negative = inhibition) is on record?
Answer: inactive: 6.24%

Question: `O=C1CO[C@H]2CN(C3CCOCC3)C[C@H]2N1c1ccccc1` was tested. Which activity % (negative = inhibition) did it give?
Answer: inactive: 7.69% [at 57.5 µM]

Question: For `CCCn1ncc(CN2CCCC23CCN(c2ncccn2)CC3)c1C`, which activity % (negative = inhibition) is on record?
Answer: inactive: 5.06%

Question: `O=C(NCc1ccc(Cl)cc1)c1cc(-c2ccc[nH]2)n[nH]1` was tested. Which activity % (negative = inhibition) did it give?
Answer: inactive: 3.06%

Question: How did the activity % (negative = inhibition) turn out when `CN1C[C@H](NCc2nccn2C)CCC[C@@H](C(=O)NC2CCOCC2)CC1=O` was run?
Answer: inactive: 11.5% [at 57.5 µM]

Question: `COC(=O)C1=C(C)NC(=O)NC1c1ccc(Cl)cc1` (stereo unspecified) was tested. Which activity % (negative = inhibition) did it give?
Answer: inactive: 51.2%

Question: How did the activity % (negative = inhibition) turn out when `Cc1ccc(-c2cc3n(n2)CCCN(C(=O)CCN2C(=O)NC(C)(C)C2=O)C3)cc1C` was run?
Answer: inactive: -11.6%

Question: For `COC(=O)NC(C)C(=O)N1Cc2cnc(Cc3ccc(OC)cc3)nc2C1` (stereo unspecified), which activity % (negative = inhibition) is on record?
Answer: inactive: -1.84%

Question: With `c1ccc2c(c1)OCC(CCn1ccnc1-c1cc3n(n1)CCNC3)O2` (stereo unspecified) as the compound, how does the activity % (negative = inhibition) read?
Answer: inactive: 14.9%

Question: Which activity % (negative = inhibition) does the source give for `O=C(Nc1cccc(C(F)(F)F)c1)N[C@H]1CO[C@H]2[C@@H]1OC[C@@H]2n1cc(-c2ccccc2)nn1` here?
Answer: inactive: 0.568%

Question: How did the activity % (negative = inhibition) turn out when `CNC(=O)N1CCC(C2CCN(C(=O)c3ccc4ccccc4n3)C2)CC1` (stereo unspecified) was run?
Answer: inactive: 15.3%

Question: `O=C1CC(Cc2ccccc2)CN1CC(=O)N1CCOC2(CCCC2)C1` (stereo unspecified) was tested. Which activity % (negative = inhibition) did it give?
Answer: inactive: 9.71%

Question: `COc1ccc(NC(=O)N[C@H]2[C@H](O)[C@@H](N(C)CCc3ccccn3)[C@@H]3OC[C@H]2O3)cc1` was tested. Which activity % (negative = inhibition) did it give?
Answer: inactive: 1.6% [at 57.5 µM]

Question: Which activity % (negative = inhibition) does the source give for `CCNc1ncnc2sc3c(c12)CCN(C(=O)CCOC)C3` here?
Answer: inactive: 58.2%

Question: For `CCC1(C(=O)O)CCCN(Cc2ccccc2)C1` (stereo unspecified), which activity % (negative = inhibition) is on record?
Answer: inactive: -2.14%

Question: How did the activity % (negative = inhibition) turn out when `CCC(CC)NC(=O)c1ccc2c(c1)N(S(C)(=O)=O)CC2` was run?
Answer: inactive: 1.78%

Question: `CC(=O)N1CC2(CCN(CCCn3ccnc3C)CC2)CC1C(=O)O` (stereo unspecified) was tested. Which activity % (negative = inhibition) did it give?
Answer: inactive: -0.0373%

Question: How did the activity % (negative = inhibition) turn out when `N[C@H]1CN(C(=O)c2cccc(-n3cnnc3)c2)C[C@@H]1c1ccccc1` was run?
Answer: inactive: -3.3%

Question: With `CC(C)c1ccc(S(=O)(=O)N2CCCN(C)c3ccccc32)cc1` as the compound, how does the activity % (negative = inhibition) read?
Answer: inactive: 5.5%

Question: For `Cc1ccc(C(=O)N2CCCC2C(=O)N2CCCC2c2nc3ccncc3[nH]2)cc1` (stereo unspecified), which activity % (negative = inhibition) is on record?
Answer: inactive: 0.286%

Question: How did the activity % (negative = inhibition) turn out when `CC(C)(O)C#Cc1ccc(C(=O)N2CCOCC2CC(=O)O)o1` (stereo unspecified) was run?
Answer: inactive: 12.4%

Question: `COc1ccccc1Oc1ncccc1CNCc1c(F)cccc1Cl` was tested. Which activity % (negative = inhibition) did it give?
Answer: inactive: 1.44%

Question: `CN(C1CCc2nn(CC3CC3)c(=O)n2CC1)S(=O)(=O)c1ccc(C#N)cc1` (stereo unspecified) was tested. Which activity % (negative = inhibition) did it give?
Answer: inactive: -11.6%

Question: Which activity % (negative = inhibition) does the source give for `COc1cccc(CC(=O)N2CC[C@@H](NC(=O)c3cnccn3)[C@H](O)C2)c1` here?
Answer: inactive: 2.06%

Question: For `CCNC(=O)[C@@H]1C[C@H](NC(=O)Cc2cccc(F)c2F)CN1C1CCCC1`, which activity % (negative = inhibition) is on record?
Answer: inactive: 2.67%

Question: For `CCCS(=O)(=O)N1CCC(F)(c2nc(CC(C)C)no2)CC1`, which activity % (negative = inhibition) is on record?
Answer: inactive: -9.88%

Question: For `CN(C)Cc1nnc(C2CC(NC(=O)Cc3c(F)cccc3Cl)C2)n1C` (stereo unspecified), which activity % (negative = inhibition) is on record?
Answer: inactive: 7.26%

Question: For `OC1CC(c2cc(N3CCC(c4nc5ccccc5[nH]4)CC3)ncn2)C1` (stereo unspecified), which activity % (negative = inhibition) is on record?
Answer: inactive: 1.96%

Question: Which activity % (negative = inhibition) does the source give for `CC(C)N(C(=O)c1ccccc1-c1ccc(CS(C)(=O)=O)cn1)C(C)C` here?
Answer: inactive: 10.1%

Question: With `COCCN1C(=O)N(C)C(=O)C12CCN(CCCOc1ccc(F)cc1)C2` (stereo unspecified) as the compound, how does the activity % (negative = inhibition) read?
Answer: inactive: -0.278%

Question: Which activity % (negative = inhibition) does the source give for `COc1ncccc1-c1cc(-c2cn[nH]c2)c2cncn2c1` here?
Answer: inactive: 18.6% [at 77.1 µM]

Question: How did the activity % (negative = inhibition) turn out when `COc1cccc(C(=O)NC2CCN(c3nnc4ccccn34)CC2)c1` was run?
Answer: inactive: 1.51%

Question: For `C1=C(c2cc(-c3ccncc3)cn3cncc23)CCOC1`, which activity % (negative = inhibition) is on record?
Answer: inactive: 6.7% [at 77.1 µM]

Question: With `O=C(NCc1cccnc1)C1CN(S(=O)(=O)c2ccccc2)CC12CCCCC2` (stereo unspecified) as the compound, how does the activity % (negative = inhibition) read?
Answer: inactive: 55.9%

Question: `COCCOCc1nc(C2CCNCC2)no1` was tested. Which activity % (negative = inhibition) did it give?
Answer: inactive: 11.5%

Question: For `N#Cc1ccc(CN2C[C@@H](CO)[C@H](NC(=O)c3ccccc3)C2)cc1`, which activity % (negative = inhibition) is on record?
Answer: inactive: -1.44%

Question: For `Cc1ccc(CN2CCC(CNC(=O)NC(C)C)C2)cc1C` (stereo unspecified), which activity % (negative = inhibition) is on record?
Answer: inactive: -15.1%

Question: How did the activity % (negative = inhibition) turn out when `O=S(=O)(NCC1CN(CC2CC2)CC12CCCCC2)c1cccs1` (stereo unspecified) was run?
Answer: inactive: -3.18%

Question: With `CNC(=O)c1cc(C2CC2)nc2onc(C3CCCN3C(=O)NC(C)c3ccccc3)c12` (stereo unspecified) as the compound, how does the activity % (negative = inhibition) read?
Answer: inactive: 13%

Question: Which activity % (negative = inhibition) does the source give for `COc1ccc(NC2CCCN(C(=O)c3cn(CCCN)nn3)C2)cc1` (stereo unspecified) here?
Answer: inactive: 4.13%

Question: For `COc1cccc(-c2cc(C(=O)NCc3c(C)cc(C)[nH]c3=O)c3c(c2)N(C(C)C)CCO3)c1OC`, which activity % (negative = inhibition) is on record?
Answer: inactive: 10.7%

Question: With `O=C(c1ccccc1Cl)N1CCc2c(nc3cc(-c4ccccc4)[nH]n3c2=O)C1` as the compound, how does the activity % (negative = inhibition) read?
Answer: inactive: 6.91%

Question: How did the activity % (negative = inhibition) turn out when `CCN(Cc1noc(C2CCC2)n1)C(=O)CC1C(=O)NCCN1CC(C)C` (stereo unspecified) was run?
Answer: inactive: 0.368%

Question: With `Cc1cccc(CN2CCN3C(=O)N(Cc4ccc(F)cc4)C[C@H]3C2)n1` as the compound, how does the activity % (negative = inhibition) read?
Answer: inactive: 0.107% [at 57.5 µM]

Question: `O=C1Cc2c(-c3ccccc3OCc3ccccc3)n[nH]c2CN1Cc1ccccn1` was tested. Which activity % (negative = inhibition) did it give?
Answer: inactive: 9.35% [at 57.5 µM]

Question: `Cc1ccc([S+](=O)([O-])N2CCCC(N3C(=O)c4c(c(C)nn4-c4ccccc4)C3C)C2)cc1` (stereo unspecified) was tested. Which activity % (negative = inhibition) did it give?
Answer: inactive: -1.4%

Question: `COCCN1CCCC2(CCN(C(=O)c3ccc(Cl)s3)C2)C1=O` (stereo unspecified) was tested. Which activity % (negative = inhibition) did it give?
Answer: inactive: 2.27%
